From article doi:10.1101/2024.03.29.586999
Results are given in words; binding and its absence hold for the method and conditions named. In cells and extracts the contact can be indirect. Some entries that bind do so weakly or less than the wild type.

Biological target: poly(A) binding protein (human (endogenous in K562, THP1, HEK293T, HeLa)), P11940
Assay: co-IP
Conditions: remark: other sources report otherwise

binding: binds
B1: Ribonuclease inhibitor 1, P13489 1-461 (protein)
chain: MSLDIQSLDIQCEELSDARWAELLPLLQQCQVVRLDDCGLTEARCKDISSALRVNPALAELNLRSNELGDVGVHCVLQGLQTPSCKIQKLSLQNCCLTGAGCGVLSSTLRTLPTLQELHLSDNLLGDAGLQLLCEGLLDPQCRLEKLQLEYCSLSAASCEPLASVLRAKPDFKELTVSNNDINEAGVRVLCQGLKDSPCQLEALKLESCGVTSDNCRDLCGIVASKASLRELALGSNKLGDVGMAELCPGLLHPSSRLRTLWIWECGITAKGCGDLCRVLRAKESLKELSLAGNELGDEGARLLCETLLEPGCQLESLWVKSCSFTAACCSHFSSVLAQNRFLLELQISNNRLEDAGVRELCQGLGQPGSVLRVLWLADCDVSDSSCSSLAATLLANHSLRELDLSNNCLGDAGILQLVESVRQPGCLLEQLVLYDIYWSEEMEDRLQALEKDKPSLRVIS
